Assay results reported in patent publication US11578140B2, “Immunoassay for mitragynine” (MICROGENICS CORPORATION, priority 2019, dated 2023).
Some entries share one result that the patent states for a list of compounds. For at least one compound, name, drawing or mass did not settle the structure.

Test system: anti-mitragynine antibody
Experiment: Cross reactivity of the anti-mitragynine antibody against kratom alkaloids and mitragynine metabolites
Type: binding, Balb/c mice
Details: tested concentration (ng/mL): Mitragynine 50, 7-hydroxy mitragynine 35,000-40,000, Paynantheine 25,000-35,000, Speciociliatine 25,000-35,000, 16-carboxy mitragynine 300-360, 9-Hydroxycorynantheidine 3,125-4,000
Protocol: In a particular embodiment of the invention, the BSA-containing immunogen of Example 4 (Compound 6) was administered to Balb/c mice in a series of injections as is routine in the art. Alternatively, other mammals are suitable for antibody production. Screening of anti-serum samples taken from the immunized mice was performed to assess antibody titer and to evaluate the ability of antibodies in the samples to bind to enzyme-donor conjugate described in Example 6.
In particular, β-galactosidase enzyme donor polypeptide fragment combines with a β-galactosidase enzyme acceptor fragment to form active β-galactosidase enzyme. The active enzyme complex is capable of transforming a substrate into a product that is differentially detectable. Usually, the product is a different color from the substrate and is quantified using spectrophotometric methods. […] Therefore, the enzyme-catalyzed reaction rate is directly proportional to the concentration of target analyte present in the specimen tested. A preferred β-galactosidase enzyme donor is ED28, a polypeptide containing residues 6-45 of β-galactosidase, with cysteines at positions 1 and 46 (relative to the numbering of the original β-galactosidase fragment).
The cross reactivity of the anti-mitragynine antibody derived from the immunogen described above was tested against certain kratom alkaloids and metabolites of mitragynine shown below.

C=C[C@H]1CN2CCc3c([nH]c4cccc(OC)c34)[C@@H]2C[C@@H]1/C(=C\OC)C(=O)OC [Paynantheine] was tested, and the “Cross Reactivity (%)” value (listed as paynantheine) was ≤ 0.2%.

With CC[C@@H]1CN2CC[C@@]3(O)C(=Nc4cccc(OC)c43)[C@@H]2C[C@@H]1/C(=C\OC)C(=O)OC [7-hydroxy mitragynine] the “Cross Reactivity (%)” value (listed as 7-OH mitragynine) was ≤ 0.2%.

In the case of CC[C@@H]1CN2CCc3c([nH]c4cccc(OC)c34)[C@H]2C[C@@H]1/C(=C\OC)C(=O)OC [Speciociliatine], the “Cross Reactivity (%)” value (listed as speciociliatine) is reported as ≤ 0.2%.
